Data as given in PubChem BioAssay AID1259308 (NCATS, 2017)
The deposit covers about 59,000 reagents; below is an unselected part. In the full data, about 1,510 (2.6%) are marked active. 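Calls use total luciferase alone and ignore viability, so some active siRNAs may act by altering cell number.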 Reagents against one gene are numbered here.

- Assay: 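Candidate targets for better recombinant protein yield in mammalian cells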 (primary screen)
- Cell system: human HEK293 embryonic kidney cells stably expressing firefly luciferase (HEK-CMV-Luc2-Hygro)
- Reagents: single siRNA against human genes, 0.8 pmol siRNA per well
- Timing: 72 h
- Read-out: 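Luciferase light (ONE-Glo) measured on one replicate plate set and viability (CellTiter-Glo) on the other, scaled to a negative control siRNA, with robust z-scores and luciferase per cell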
- Scale: total luciferase, z-score and total luciferase, % of control: higher = more reporter protein produced; luciferase per cell, z-score: higher = more reporter output per viable cell; viable cells, % of control: higher = more viable cells
- Rule for the call: 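Active when the median/MAD z-score for overall luciferase is greater than 3; a gene was taken forward for validation with new siRNAs if at least two of its three siRNAs passed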
- Meaning of the calls: active = raised luciferase; inactive = no rise

gene,siRNA no.,"total luciferase, z-score","total luciferase, % of control","luciferase per cell, z-score","viable cells, % of control",outcome
SUSD3,1,1.73,116,0.865,103,inactive
SUSD3,2,-0.553,70.9,-1.11,106,inactive
SUSD3,3,0.0609,83.1,-0.0234,93.4,inactive
TRIM77,1,-2.57,30.7,-0.462,38.8,inactive
TRIM77,2,-0.787,66.2,-0.445,83.2,inactive
TRIM77,3,0.746,96.7,0.703,89.8,inactive
SWSAP1,1,0.357,89,2.73,48.4,inactive
SWSAP1,2,3.42,150,2.04,97.9,active
SWSAP1,3,-0.171,78.5,-0.632,104,inactive
PON3,1,-0.889,64.2,-0.364,79,inactive
PON3,2,-1.35,55,-1.33,87.1,inactive
PON3,3,1.21,106,1.37,82.6,inactive

Taken from above:
Result of SUSD3 #3 under “luciferase per cell, z-score”: -0.0234
SUSD3 #1, total luciferase, % of control = 116

The results go on:
gene,siRNA no.,"total luciferase, z-score","total luciferase, % of control","luciferase per cell, z-score","viable cells, % of control",outcome
REG3A,1,0.427,90.4,0.347,92.2,inactive
REG3A,2,0.499,91.8,0.9,81,inactive
REG3A,3,0.181,85.5,0.0803,93.5,inactive
OLA1,1,-0.303,75.9,0.316,78,inactive
OLA1,2,-1.1,60,-1.3,94.4,inactive
OLA1,3,0.439,90.6,-0.206,107,inactive
SPG11,1,3.14,144,2.18,90.8,active
SPG11,2,-1.28,56.4,-0.721,76.2,inactive
SPG11,3,-0.0575,80.7,0.201,85.6,inactive
ADCK2,1,-0.0856,80.2,0.523,78.1,inactive
ADCK2,2,-0.154,78.8,0.161,84.4,inactive
ADCK2,3,-0.0399,81.1,-0.253,96.9,inactive
